Data source: PubChem BioAssay AID493246 (Drosophila RNAi Screening Center, 2011)

Assay: 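Genes fly cells need to grow and stay alive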 (primary screen)
Cell system: Drosophila Kc and S2R+ cells
Reagent: long dsRNA against Drosophila genes
Detection: 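Cell number per well after knock-down, printed as raw plate values; calls were based on per-plate z-scores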
Direction: Kc cell number and S2R+ cell number: higher = more cells remaining
Rule for the call: 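Active when the per-plate z-score of cell number is 3 or more in the direction of fewer cells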
The screen tested about 21,000 reagents; shown is an unselected part of those that have a named target and a result. Over the whole deposit, 429 (2%) were called active. 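Values are raw and not normalised between plates; calls rest on per-plate z-scores that were not deposited.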 A plus sign joins genes that one reagent is predicted to hit. Not stated in the record: the amount of reagent, the time to read-out.

gene	PubChem SID	Kc cell number, rep 1	Kc cell number, rep 2	S2R+ cell number, rep 1	S2R+ cell number, rep 2	outcome
CG31368	SID104194741	1.50e6	1.60e6	1.34e6	1.46e6	inactive
CG31368	SID104194743	1.45e6	1.56e6	1.22e6	1.26e6	inactive
Fmo-2 (Flavin-containing monooxygenase 2)	SID104184775	1.27e6	1.34e6	1.14e6	1.18e6	inactive
NijC (Ninjurin C)	SID104194643	1.70e6	1.68e6	1.36e6	1.48e6	inactive
CG30460	SID104186351	1.61e6	1.65e6	1.14e6	1.21e6	inactive
CG30460	SID104186352	8.65e5	1.34e6	4.05e5	5.40e5	active
Dtwd2 + Obp84a	SID104192395	1.67e6	1.91e6	1.25e6	1.41e6	inactive
CG5139	SID104180473	1.42e6	1.57e6	1.04e6	1.16e6	inactive
Rpi (Ribose-5-phosphate isomerase)	SID104184375	1.66e6	1.70e6	1.27e6	1.38e6	inactive
CG4956	SID104195475	1.51e6	1.52e6	1.01e6	1.08e6	inactive

The list goes on; the last 2 above are carried over.
gene	PubChem SID	Kc cell number, rep 1	Kc cell number, rep 2	S2R+ cell number, rep 1	S2R+ cell number, rep 2	outcome
Rpi (Ribose-5-phosphate isomerase)	SID104184375	1.66e6	1.70e6	1.27e6	1.38e6	inactive
CG4956	SID104195475	1.51e6	1.52e6	1.01e6	1.08e6	inactive
CG17104	SID104182365	1.16e6	1.22e6	9.32e5	8.06e5	inactive
CG1368	SID104199329	5.36e5		8.61e5		inactive
CG18213	SID104195108	1.22e6	1.31e6	1.07e6	1.20e6	inactive
Pfdn6 (Prefoldin 6)	SID104190707	1.41e6	1.44e6	1.29e6	1.37e6	inactive
D12	SID104183103	1.40e6	1.47e6	6.43e5	6.64e5	inactive
Sbp2 (SECIS-binding protein 2)	SID104190558	1.34e6	1.37e6	1.24e6	1.15e6	inactive
Nmdmc (NAD-dependent methylenetetrahydrofolate dehydrogenase)	SID104196552	1.57e6	1.64e6	1.23e6	1.30e6	inactive
Pex19 (Peroxin 19)	SID104182631	1.37e6	1.48e6	1.28e6	1.34e6	inactive
Dbct (Dihydrolipoamide branched chain transacylase E2)	SID104199743	5.70e5		9.46e5		inactive
hb (hunchback)	SID104196755	1.49e6	1.70e6	1.34e6	1.37e6	inactive
MFS14 (Major Facilitator Superfamily Transporter 14)	SID104186316	1.31e6	1.50e6	1.09e6	1.13e6	inactive
roq (roquin)	SID104190019	1.60e6	1.58e6	1.45e6	1.53e6	inactive
CG12825	SID104185966	1.48e6	1.71e6	1.23e6	1.39e6	inactive
mRpL50 (mitochondrial ribosomal protein L50)	SID104190807	1.46e6	1.57e6	1.16e6	1.11e6	inactive
